# Percent effect of library compounds

Data taken from ChEMBL document CHEMBL3988442, “University of Dundee, Small-Polar-MMV Screening Library” (2021).

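Whole-cell growth test on Mycobacterium tuberculosis, read after 3 days in glucose-containing 7H9 medium; the read-out is not stated. Tested at 50 µM. The record gives no direction; compounds that gave an IC50 in retests scored well above the rest, so higher reads as more growth inhibition. Of about 69,000 compounds tested this way, about 760 (1.1%) reached 50% or more in at least one test.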

Each number is a percent effect as filed. The controls that fix the scale are not given in the record; negative values are as filed. Compounds were drawn at random from those tested, without regard to their results. Two or more numbers in one place are separate tests of the same structure; such repeats can differ widely.

structure	Percent Effect
O=C(Nc1ccc(Cl)cn1)c1nn(C2CCS(=O)(=O)C2)c2c1CCCC2 (configuration not stated)	-7.073
CCN(CC)c1ncc(CNC2CCc3nc(C)nn3C2)s1 (configuration not stated)	-9.73
COc1ccc(CNCc2c(C)nc3sc(C)cn23)c(OC)c1OC	-46.52
CCc1nnc(C(C)N2CCN(CCC(C)(C)C)CC2)o1 (configuration not stated)	9.264
COc1cccc(CN2CCCC2c2cncc(Nc3nncs3)n2)c1 (configuration not stated)	-11.64
Cc1cc(C)n(CC2CCCCN2CCCS(=O)(=O)N(C)C)n1 (configuration not stated)	3.844
N#Cc1cccc(CN2C[C@@H](F)[C@@H](OCc3nc4cnccc4[nH]3)C2)c1	-23.77 & -7.317
O=C(O)C(F)(F)F.c1cncc(N2CCC3(CCCN(c4ccncc4)C3)CC2)c1	-6.233
Cn1ccc(C(=O)N2CCN(CCc3ccccc3)CC2)cc1=O	9.405
CC1c2ncc(CN3CCN(C)CC3)n2CCN1Cc1ccccn1.O=C(O)C(F)(F)F.O=C(O)C(F)(F)F.O=C(O)C(F)(F)F.O=C(O)C(F)(F)F (configuration not stated)	-34.72
COc1ccc(F)cc1-c1ccccc1CC1(C(=O)O)CCOCC1	-11.96
CN(c1ncccc1CNC(=O)c1csnn1)C1CCCCC1	3.307 & 12.21
Cc1cc(NCCO)nc2[nH]nc(N)c12	20.46
CN(CC(=O)NC1CC1)S(=O)(=O)c1ccc(F)cc1Cl	-40.39
CN(C)c1cccc(CNCc2ccc(N3CCOCC3)cc2)c1	-19.67
O=c1[nH]nc2c(S(=O)(=O)N3CCCCC3)cccn12	-4.63
FC(F)(F)CCc1ccnc(N2CCN(CCc3ccncc3)CC2)n1	-4.526
Cc1cc2c(N)nc(=O)n(CC(=O)Nc3ccccc3)c2s1	32.71
COc1ccc(CCn2cnnc2[S+](C)[O-])cc1 (configuration not stated)	17.74
c1ccc(CCc2n[nH]c(C3CCC3)n2)cc1	-10.38
Cc1nnc(C2CCN(c3ncccn3)CC2)o1	17.72
CCc1nc(CNC(C)c2cccc(N3CCCC3=O)c2)cs1.Cl (configuration not stated)	-5.237 & -42.71
CN(C)C(=O)CN1CCC2(CCN(C(=O)N3CCCC3)CC2)C1=O	12.04
c1ccc(OCCN2CCC(n3cncn3)CC2)cc1	-0.3962
O=C(CC1CCCO1)NCCc1ccc(Br)cc1F (configuration not stated)	23.4 & 6.527
CCCSCC(=O)N1CCCC(c2nccn2Cc2ccncc2)C1 (configuration not stated)	7.499
COc1ccc(NC(=O)N(C)Cc2ccco2)cn1	9.24
CC(=O)NCCC(=O)N(C/C=C/c1ccccc1)CCO	-5.517 & -6.266
[H][C@@]12COC[C@H](C(=O)N3CCOCC3)[C@]1([H])CN(CC1CCC1)C2	15.84 & -1.157
CCCSc1ncc(-c2nccn2CCC(N)=O)cn1	-23.85
CCOC(=O)N1CCN(c2nc(C)ncc2CC)CC1	-14.59
CNC(=O)c1ccc(CNC(=O)c2cc(C(C)C)n(C)n2)cc1	-12.95
CCCN(C)C(=O)c1cc(S(=O)(=O)NCC)ccc1C	-23.32 & -6.856
CCC(=O)N1CCCN(C(=O)C2SCCc3sccc32)CC1 (configuration not stated)	-43.46 & -4.772
CNC(=O)c1cccc(CNC2CCSc3c(Cl)cccc32)c1 (configuration not stated)	21.9 & 15.62
O=C(C1CCCC1)N1CCC(Nc2ccncn2)CC1	0.5426
Cc1nc(CN2CCCC(N(C)Cc3cnc(C)s3)C2)no1 (configuration not stated)	-24.21
CCOc1cc(CN(C)CCCO)ccc1OC(F)F	39.91
Cl.N#Cc1ccc(NC(=O)C2CSCN2)cc1 (configuration not stated)	-18.57
Cn1c2c(ccc1=O)CC(NC(=O)Cc1ccsc1)CC2 (configuration not stated)	-6.315 & 2.518
CCc1cnc(COc2ccc(OC3CCCCNC3=O)cc2)o1 (configuration not stated)	11.67
CCNC(=O)NC[C@H]1COCc2nc3cc(C)ccc3n21	17.13 & 12.46
CCn1cc(S(=O)(=O)N(C)Cc2c(Br)cnn2CC)c(C)n1	4.376
COc1ccc(OCc2nc(C(=O)N3CC[C@H](O)[C@@H](O)C3)co2)cc1	-16.74
Cc1csc(CN(CC2CCCO2)C(=O)c2occc2C)n1 (configuration not stated)	24.47
CCn1cnnc1CNC(=O)c1cc(Cl)c(I)cc1OC	8.597
[H][C@@]12CN(Cc3nccs3)C[C@]1([H])CN(C(=O)c1cnc(C)cn1)C2	-12.05
CCN1CCCCC1C(=O)N1CCc2onc(-c3ccc(Cl)cc3)c2C1 (configuration not stated)	12.83
COc1ccc(C2CCCN2C(=O)NCCNc2ccccn2)cc1 (configuration not stated)	9.589
Nc1ccnc(CNc2cc(F)ccc2OCC2CCCO2)n1 (configuration not stated)	8.523 & -0.9492
CSc1[nH]nc(NC(=O)c2ccncc2)c1C#N	1.149
Cc1nc(CN2CCCC(N(C)CCOCC(F)(F)F)C2)no1 (configuration not stated)	-39.95 & 0.5161
Cc1cc(C)nc(NC(=O)NCCCSc2nncn2C)n1	-7.71 & -41.93
O=C(Cn1cnc2ccsc2c1=O)c1ccc2c(c1)OCCO2	6.579
Cc1cc(-c2cnc(N3CCOCC3)nc2-c2cccnc2C)on1	12.5
CSCCc1c(-c2ccccc2)ncn1CCNc1cccnc1	-5.514
[H][C@@]12C[C@H](C(=O)Nc3cccnc3)CN(Cc3ccc(C)o3)[C@]1([H])CCO2	0.49
CC(C)c1ccc(/C=C/CC(=O)NC2CCN(C(N)=O)C2)cc1 (configuration not stated)	15.91 & 5.45
Cc1nc(NC(=O)N2CCCC(C(F)(F)F)C2)nn1C (configuration not stated)	-13.05
O=C([C@H]1CCCO1)N1CCc2ncnc(C3CC3)c2CC1	-12.29
CN(C)CC(=O)N1CCC2(CC(=O)N(c3cccc(C#N)c3)C2)C1.O=C(O)C(F)(F)F (configuration not stated)	-21.96
COC1CCN(C(=O)Nc2ccccc2)CC(=O)N(C)c2ccccc21 (configuration not stated)	8.855
COCC(NC(=O)NCc1cccc(Cl)c1)c1ccco1 (configuration not stated)	-41.55
CNc1ncc2c(n1)CN(c1cccc(OC)c1)C2=O	22.47
CN1CCN(C(=O)CCc2ccccc2)Cc2cccnc21.O=C(O)C(F)(F)F	-10.94 & 3.024
CCc1ccc(CN(CC)Cc2ccc(S(=O)(=O)NC)cc2)cc1	20.37
Cn1nccc1CCC(=O)NC1CCCN(c2ccccn2)C1 (configuration not stated)	-1.415
CCc1nc(CN2CCN(C(=O)c3cnccn3)CC2)cs1	18.66
Cc1ccc(N2CCCC(c3[nH]ncc3Cc3ccccc3)C2)nn1 (configuration not stated)	28.3
Cc1nnc(C2CCN(C(=O)c3ccc(-n4cccc4)cc3)CC2)s1	-8.685 & 2.769
CSC1(CNC(=O)NCc2sccc2C)CCOCC1	0.816 & 2.718
O=C(O)C(F)(F)F.[H][C@]12CCN(c3cncnc3)C(=O)[C@]1([H])CN(Cc1ccccn1)C2	-3.35
O=C(c1cc(-c2ccccc2)nc2onc(C3CC3)c12)N1CC[C@H](O)C1	-20.33 & -0.01047
CCCn1ccc(C(=O)N2CCC(C)CC2)n1	12.04
CN(C)CC(=O)NC1CC(C)(C)Cc2nc(C(C)(C)C)ncc21 (configuration not stated)	4.113
Cc1ccc(CCC(C)NC2CCN(C(N)=O)CC2)cc1 (configuration not stated)	3.456
COc1ccc(C(=O)N2CC(=O)N(CC3CC3)CC(O)C2)cc1 (configuration not stated)	-0.6697
CSCc1cccc(S(=O)(=O)NCCO)c1	17.56
Cn1c(C2CC2)nc2cc(NC(=O)C3CCOC3)ccc21 (configuration not stated)	24.21
CCc1cc(=O)[nH]c2nnc(SCC(=O)NC(C)C)n12	-32.04
CC(C)c1cc(N(C)Cc2cc(C3CC3)on2)n2nccc2n1	28.54
O=C1N(Cc2ccc(F)c(F)c2)CCCC1(O)CNCc1cccnc1 (configuration not stated)	-3.921
O=C1CC2(CCN(C(=O)c3ccccn3)CC2)Oc2c(Cl)cc(Cl)cc21	7.654
Cn1cc(CC2CCN(C(=O)NCc3csc(C4CC4)n3)C2)cn1 (configuration not stated)	0.9878
CC(C)(C)n1nc(C2CC2)cc1C(=O)NC1CCN(CC(N)=O)CC1	-19.77
O=C(O)C(F)(F)F.[H][C@@]12CCN(Cc3ccccc3)C[C@@]1([H])O[C@@H](C(=O)NCC1CCOCC1)C2	3.076
COCC(NC1CSCCSC1)c1ccnn1C (configuration not stated)	-0.6549 & -16.17

8 of the entries, repeated:

- CN(CC(=O)NC1CC1)S(=O)(=O)c1ccc(F)cc1Cl | -40.39%
- CN(c1ncccc1CNC(=O)c1csnn1)C1CCCCC1 | 3.307% & 12.21%
- CCNC(=O)NC[C@H]1COCc2nc3cc(C)ccc3n21 | 17.13% & 12.46%
- O=C(C1CCCC1)N1CCC(Nc2ccncn2)CC1 | 0.5426%
- Cc1nnc(C2CCN(c3ncccn3)CC2)o1 | 17.72%
- CCCn1ccc(C(=O)N2CCC(C)CC2)n1 | 12.04%
- Cc1cc2c(N)nc(=O)n(CC(=O)Nc3ccccc3)c2s1 | 32.71%
- Cc1cc(C)n(CC2CCCCN2CCCS(=O)(=O)N(C)C)n1 (configuration not stated) | 3.844%